From article PMC6373471
Results are given in words; binding and its absence hold for the method and conditions named. Binding seen in cells or lysates may run through a third protein. These calls come from enrichment with a bait or labelling near it, and not all partners need be listed.

By UniProt entry, the sequences of proteins in these tests, tags left out.
UniProt Q9SQI2: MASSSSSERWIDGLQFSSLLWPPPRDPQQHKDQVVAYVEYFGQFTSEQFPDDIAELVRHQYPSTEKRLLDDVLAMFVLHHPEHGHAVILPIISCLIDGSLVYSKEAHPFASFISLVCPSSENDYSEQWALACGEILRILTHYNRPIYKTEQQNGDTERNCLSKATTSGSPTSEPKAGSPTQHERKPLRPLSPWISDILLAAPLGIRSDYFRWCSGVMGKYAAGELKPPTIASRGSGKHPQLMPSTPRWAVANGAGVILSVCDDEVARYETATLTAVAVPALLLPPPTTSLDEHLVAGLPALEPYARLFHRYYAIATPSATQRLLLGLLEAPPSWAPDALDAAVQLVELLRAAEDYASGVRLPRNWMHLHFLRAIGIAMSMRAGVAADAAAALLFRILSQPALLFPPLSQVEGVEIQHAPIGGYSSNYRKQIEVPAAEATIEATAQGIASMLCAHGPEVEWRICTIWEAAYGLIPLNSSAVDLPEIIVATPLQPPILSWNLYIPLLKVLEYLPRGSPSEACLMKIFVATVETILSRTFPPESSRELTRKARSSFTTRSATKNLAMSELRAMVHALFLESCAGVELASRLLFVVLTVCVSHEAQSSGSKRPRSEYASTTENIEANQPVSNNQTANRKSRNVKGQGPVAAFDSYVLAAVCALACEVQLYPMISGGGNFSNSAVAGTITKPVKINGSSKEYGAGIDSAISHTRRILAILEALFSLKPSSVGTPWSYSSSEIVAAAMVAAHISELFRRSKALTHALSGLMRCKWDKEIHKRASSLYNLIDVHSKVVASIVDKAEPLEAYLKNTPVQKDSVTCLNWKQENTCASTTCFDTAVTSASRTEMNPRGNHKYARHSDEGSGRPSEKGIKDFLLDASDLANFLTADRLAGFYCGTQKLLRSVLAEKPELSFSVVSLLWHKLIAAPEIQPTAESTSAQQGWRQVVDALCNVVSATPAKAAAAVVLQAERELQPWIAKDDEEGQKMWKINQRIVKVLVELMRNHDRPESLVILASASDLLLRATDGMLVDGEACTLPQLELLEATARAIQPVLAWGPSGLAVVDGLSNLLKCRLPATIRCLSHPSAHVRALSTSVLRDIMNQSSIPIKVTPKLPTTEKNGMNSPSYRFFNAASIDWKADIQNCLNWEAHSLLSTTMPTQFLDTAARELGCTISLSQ

B1: TUF (protein, UniProt Q39258 1-230)
chain: MNDGDVSRQIQQMVRFIRQEAEEKANEISVSAEEEFNIEKLQLVEAEKKKIRQDYEKKEKQADVRKKIDYSMQLNASRIKVLQAQDDIVNAMKDQAAKDLLNVSRDEYAYKQLLKDLIVQCLLRLKEPSVLLRCREEDLGLVEAVLDDAKEEYAGKAKVHAPEVAVDTKIFLPPPPKSNDPHGLHCSGGVVLASRDGKIVCENTLDARLDVAFRMKLPVIRKSLFGQVTA
B2: ASE1 (protein, UniProt Q9SI61 59-566)
chain: SSYFSSPSPSEDNSHTPFDYHNDEDDEKPREECGVVGIYGDPEASRLCYLALHALQHRGQEGAGIVTVSPEKVLQTITGVGLVSEVFNESKLDQLPGEFAIGHVRYSTAGASMLKNVQPFVAGYRFGSIGVAHNGNLVNYKTLRAMLEENGSIFNTSSDTEVVLHLIAISKARPFFMRIIDACEKLQGAYSMVFVTEDKLVAVRDPYGFRPLVMGRRSNGAVVFASETCALDLIEATYEREVYPGEVLVVDKDGVKSQCLMPKFEPKQCIFEHIYFSLPNSIVFGRSVYESRHVFGEILATESPVECDVVIAVPDSGVVAALGYAAKSGVPFQQGLIRSHYVGRTFIEPSQKIRDFGVKLKLSPVRGVLEGKRVVVVDDSIVRGTTSSKIVRLLREAGAKEVHMRIASPPIVASCYYGVDTPSSEELISNRLSVEEINEFIGSDSLAFLSFDTLKKHLGKDSKSFCYACFTGDYPVKPTEVKVKRGGGDFIDDGLVGSFENIEAGWVR
B3: TCP‐1/cpn60 chaperonin (AT1G24510) (protein, UniProt O04450 1-535)
chain: MALAFDEFGRPFIILREQDQKTRLRGIDAQKANIAAGKAVARILRSSLGPKGMDKMLQGPDGDITITNDGATILEQMDVDNQIAKLMVELSRSQDYEIGDGTTGVVVMAGALLEQAERQLDRGIHPIRIAEGYEMASRVAVEHLERIAQKFEFDVNNYEPLVQTCMTTLSSKIVNRCKRSLAEIAVKAVLAVADLERRDVNLDLIKVEGKVGGKLEDTELIYGILIDKDMSHPQMPKQIEDAHIAILTCPFEPPKPKTKHKVDIDTVEKFETLRKQEQQYFDEMVQKCKDVGATLVICQWGFDDEANHLLMHRNLPAVRWVGGVELELIAIATGGRIVPRFQELTPEKLGKAGVVREKSFGTTKERMLYIEHCANSKAVTVFIRGGNKMMIEETKRSIHDALCVARNLIRNKSIVYGGGAAEIACSLAVDAAADKYPGVEQYAIRAFAEALDSVPMALAENSGLQPIETLSAVKSQQIKENIPFYGIDCNDVGTNDMREQNVFETLIGKQQQILLATQVVKMILKIDDVISNSEY
B4: TCP‐1/cpn60 chaperonin (AT3G18190) (protein, UniProt Q9LV21 1-536)
chain: MAAVAAPMASKPRGSKAESFVDNKRREDIRFANINSARAVSDAVRTSLGPKGMDKMISTANGEVIITNDGATILNKMEVLQPAAKMLVELSKSQDSAAGDGTTTVVVIAGALLKECQSLLTNGIHPTVISDSLHKACGKAIDILTAMAVPVELTDRDSLVKSASTSLNSKVVSQYSTLLAPLAVDAVLSVIDPEKPEIVDLRDIKIVKKLGGTVDDTHTVKGLVFDKKVSRAAGGPTRVENAKIAVIQFQISPPKTDIEQSIVVSDYTQMDRILKEERNYILGMIKKIKATGCNVLLIQKSILRDAVTDLSLHYLAKAKIMVIKDVERDEIEFVTKTLNCLPIANIEHFRAEKLGHADLVEEASLGDGKILKITGIKDMGRTTSVLVRGSNQLVLDEAERSLHDALCVVRCLVSKRFLIAGGGAPEIELSRQLGAWAKVLHGMEGYCVKSFAEALEVIPYTLAENAGLNPIAIVTELRNKHAQGEINAGINVRKGQITNILEENVVQPLLVSTSAITLATECVRMILKIDDIVTVR
B5: RPT1A (protein, UniProt Q9SSB5 1-426)
chain: MVRDIEDEIRDEKNPRPLDEDDIALLKTYGLGPYSAPIKKVEKEIKDLAKKINDLCGIKESDTGLAPPSQWDLVSDKQMMQEEQPLQVARCTKIISPNTEDAKYVINVKQIAKFVVGLGDKVSPTDIEEGMRVGVDRNKYQIQIPLPPKIDPSVTMMTVEEKPDVTYNDVGGCKEQIEKMREVVELPMLHPEKFVKLGIDPPKGVLCYGPPGTGKTLLARAVANRTDACFIRVIGSELVQKYVGEGARMVRELFQMARSKKACIVFFDEVDAIGGARFDDGVGGDNEVQRTMLEIVNQLDGFDARGNIKVLMATNRPDTLDPALLRPGRLDRKVEFGLPDLESRTQIFKIHTRTMNCERDIRFELLARLCPNSTGADIRSVCTEAGMYAIRARRKTVTEKDFLDAVNKVIKGYQKFSATPKYMVYN
B6: REI1‐LIKE (REIL) (protein, UniProt Q8H1G5 1-404)
chain: MPGLTCNACNMEFKDEEERNLHYKSDWHRYNLKRKVAGVPGVTEALFEARQSALAQEKNKSNEAPMLYTCAICAKGYRSSKAHEQHLQSRSHVLRVSQGTSINGEEDIAIIRQLPRRVQHRGSIDDDSEDEWVEVDSDEELAAEEASDSLSKLNVNESGSAEDMDDDGDADKYELDPTCCLMCDKKHKTLESCMLHMHKHHGFFIPDIEYLKDPEGLLTYLGLKVKRDFMCLYCNELCRPFSSLEAVRKHMEAKSHCKLHYGDGDDEEDAELEEFYDYSSSYVDEAGKQIVVSGETDNTVELVGGSELLITEKSENTTTSKTLGSREFMRYYRQKPRPTSQDSNQIIASLSSRYKSLGLKTVPSKEETLRMKVRKEMSKRGETMRTKIGVKSNVIRNLPNNVPY
B7: Cytidine/deoxycytidylate deaminase (AT5G28050) (protein, UniProt Q94BU8 1-185)
chain: MEEAKVEAKDGTISVASAFSGHQQAVHDSDHKFLTQAVEEAYKGVDCGDGGPFGAVIVHNNEVVASCHNMVLKYTDPTAHAEVTAIREACKKLNKIELSECEIYASCEPCPMCFGAIHLSRLKRLVYGAKAEAAIAIGFDDFIADALRGTGVYQKSSLEIKKADGNGAAIAEQVFQNTKEKFRLY
B8: glycyl‐tRNA synthetase (AT1G29880) (protein, UniProt O23627 29-729)
chain: NPISIAPIQIPMDATEQSLRQSLSEKSSSVEAQGNAVRALKASRAAKPEIDAAIEQLNKLKLEKSTVEKELQSIISSSGNGSLNREAFRKAVVNTLERRLFYIPSFKIYSGVAGLFDYGPPGCAIKSNVLSFWRQHFILEENMLEVDCPCVTPEVVLKASGHVDKFTDLMVKDEKTGTCYRADHLLKDYCTEKLEKDLTISAEKAAELKDVLAVMEDFSPEQLGAKIREYGITAPDTKNPLSDPYPFNLMFQTSIGPSGLIPGYMRPETAQGIFVNFKDLYYYNGKKLPFAAAQIGQAFRNEISPRQGLLRVREFTLAEIEHFVDPENKSHPKFSDVAKLEFLMFPREEQMSGQSAKKLCLGEAVAKGTVNNETLGYFIGRVYLFLTRLGIDKERLRFRQHLANEMAHYAADCWDAEIESSYGWIECVGIADRSAYDLRAHSDKSGTPLVAEEKFAEPKEVEKLVITPVKKELGLAFKGNQKNVVESLEAMNEEEAMEMKATLESKGEVEFYVCTLKKSVNIKKNMVSISKEKKKEHQRVFTPSVIEPSFGIGRIIYCLYEHCFSTRPSKAGDEQLNLFRFPPLVAPIKCTVFPLVQNQQFEEVAKVISKELASVGISHKIDITGTSIGKRYARTDELGVPFAITVDSDTSVTIRERDSKDQVRVTLKEAASVVSSVSEGKMTWQDVWATFPHHSSAAADE
B9: Transcriptional coactivator (AT5G51110) (protein, UniProt Q9LU63 51-220)
chain: SNLAQDFLGDFGARDPYPEEIASQFGDKVLGCQSTEHKILIPNASVLSLSQLQCSPVSSSQPPLSGDDARTLLHKVLGWSIVDNEAGGLKIRCMWKVRDFGCGVELINRIHKVAEASGHYPSLHLESPTQVRAELFTSSIGGLSMNDFIMAAKIDDIKTSDLSPRKRAWA
B10: PDX1 (protein, UniProt Q8L940 1-309)
chain: MEGTGVVAVYGNGAITEAKKSPFSVKVGLAQMLRGGVIMDVVNAEQARIAEEAGACAVMALERVPADIRAQGGVARMSDPQMIKEIKQAVTIPVMAKARIGHFVEAQILEAIGIDYIDESEVLTLADEDHHINKHNFRIPFVCGCRNLGEALRRIREGAAMIRTKGEAGTGNIIEAVRHVRSVNGDIRVLRNMDDDEVFTFAKKLAAPYDLVMQTKQLGRLPVVQFAAGGVATPADAALMMQLGCDGVFVGSGIFKSGDPARRARAIVQAVTHYSDPEMLVEVSCGLGEAMVGINLNDEKVERFANRSE
B11: RPN10 (protein, UniProt P55034 1-386)
chain: MVLEATMICIDNSEWMRNGDYSPSRLQAQTEAVNLLCGAKTQSNPENTVGILTMAGKGVRVLTTPTSDLGKILACMHGLDVGGEINLTAAIQIAQLALKHRQNKNQRQRIIVFAGSPIKYEKKALEIVGKRLKKNSVSLDIVNFGEDDDEEKPQKLEALLTAVNNNDGSHIVHVPSGANALSDVLLSTPVFTGDEGASGYVSAAAAAAAAGGDFDFGVDPNIDPELALALRVSMEEERARQEAAAKKAADEAGQKDKDGDTASASQETVARTTDKNAEPMDEDSALLDQAIAMSVGDVNMSEAADEDQDLALALQMSMSGEESSEATGAGNNLLGNQAFISSVLSSLPGVDPNDPAVKELLASLPDESKRTEEEESSSKKGEDEKK
B12: FIB2 (protein, UniProt Q94AH9 1-320)
chain: MRPPLTGSGGGFSGGRGRGGYSGGRGDGGFSGGRGGGGRGGGRGFSDRGGRGRGRGPPRGGARGGRGPAGRGGMKGGSKVIVEPHRHAGVFIAKGKEDALVTKNLVPGEAVYNEKRISVQNEDGTKTEYRVWNPFRSKLAAAILGGVDNIWIKPGAKVLYLGAASGTTVSHVSDLVGPEGCVYAVEFSHRSGRDLVNMAKKRTNVIPIIEDARHPAKYRMLVGMVDVIFSDVAQPDQARILALNASYFLKSGGHFVISIKANCIDSTVPAEAVFQTEVKKLQQEQFKPAEQVTLEPFERDHACVVGGYRMPKKPKAATAA
B13: EMB2719 (protein, UniProt Q9LNU4 1-488)
chain: MTQDVEMKDNNTPSQSIISSSTSTMQNLKEIAALIDTGSYTKEVRRIARAVRLTIGLRQKLTGSVLSSFLDFALVPGSEAHSRLSSFVPKGDEHDMEVDTASSATQAAPSKHLPAELEIYCYFIVLLFLIDQKKYNEAKACSSASIARLKNVNRRTIDVIASRLYFYYSLSYEQTGDLAEIRGTLLALHHSATLRHDELGQETLLNLLLRNYLHYNLYDQAEKLRSKAPRFEAHSNQQFCRYLFYLGKIRTIQLEYTDAKESLLQAARKAPIAALGFRIQCNKWAILVRLLLGEIPERSIFTQKGMEKALRPYFELTNAVRIGDLELFRTVQEKFLDTFAQDRTHNLIVRLRHNVIRTGLRNISISYSRISLPDVAKKLRLNSENPVADAESIVAKAIRDGAIDATIDHKNGCMVSKETGDIYSTNEPQTAFNSRIAFCLNMHNEAVRALRFPPNTHKEKESDEKRRERKQQEEELAKHMAEEDDDDF

target: GIGANTEA with C-terminal 3xFLAG-6xHis tag (GI‐3F6H) (Arabidopsis thaliana) (UniProt Q9SQI2); test: affinity purification with mass spectrometry; time series study: tandem affinity purification (FLAG and His tags) of GI-3F6H from rosettes grown in short days, six time points plus ZT31; on-bead digest, label-free quantitation; WT plants as control

Question: B1 was tested. Which binding did it give?
Answer: binds

Question: How did the binding turn out when B2 was run?
Answer: binds

Question: With B3 as the binder, how does the binding read?
Answer: binds

Question: For B4, which binding is on record?
Answer: binds

Question: With B5 as the binder, how does the binding read?
Answer: binds

Question: B6 was tested. Which binding did it give?
Answer: binds

Question: With B7 as the binder, how does the binding read?
Answer: binds

Question: Which binding does the source give for B8 here?
Answer: binds

Question: How did the binding turn out when B9 was run?
Answer: binds

Question: Which binding does the source give for B10 here?
Answer: binds

Question: B11 was tested. Which binding did it give?
Answer: binds

Question: With B12 as the binder, how does the binding read?
Answer: binds

Question: For B13, which binding is on record?
Answer: binds
